Each structure is given as a SMILES string. The list does not hold the whole screen: it gathers tests that were run many times, whatever their T/C, doses with no T/C, and many T/C values between a quarter and a half above the control. Other doses and runs of a compound stand elsewhere. T/C is the treated group as % of the vehicle group. Some doses have a count of surviving animals in place of a T/C: the source files T/C as zero there, which appears to mark a toxic dose or a test without result, not a measured value. Some doses without a T/C left all or most animals alive at the check, yet need not have been tolerated: the source hardly ever lists a survival T/C far under the control, and the zero likely stands for such cases as well. Counts of survivors are from the toxicity check (mostly the fifth day) where no day follows; animals may have died later. Schedules are NCI's codes, read here as Q, the interval in days (D) or hours (H), X, the number of doses. Some entries were tested several times; their values stand side by side, smallest first. Some schedules carry Z or #; the key to these is not given. Some molecules as drawn cover several salts, stereoisomers or complexes of the source; a dose is that of the sample tested. Where survival is the endpoint, the PubChem record calls one and a half times the control and up active, and a quarter to a half above the control has no call in these data; cut-offs in other NCI protocols can differ.

The test system of the assay is L1210 leukemia ip in BDF1 mice, survival T/C. The experiment in a line: NCI In Vivo Anticancer Drug Screen. Data for tumor model L1210 Leukemia (intraperitoneal) in B6D2F1 (BDF1) mice. The conditions noted are these: T/C endpoint: mean survival time, higher T/C = longer survival.
Where [1] appears, read: dose: 400.0 mg/kg/injection, schedule: Q01DX009 (ip), vehicle: saline with Tween-80.
Setting [2] is: dose: 200.0 mg/kg/injection, schedule: Q01DX009 (ip), vehicle: saline with Tween-80.
Where [3] appears, read: dose: 400.0 mg/kg/injection, schedule: Q01DX009 (ip), vehicle: Klucel (hydroxypropylcellulose) (HPC).
The mark [4] stands for this setting: dose: 100.0 mg/kg/injection, schedule: Q04DX003 (ip), vehicle: saline.
The mark [5] stands for this setting: dose: 400.0 mg/kg/injection, schedule: Q01DX001 (ip), vehicle: saline.
Where [6] appears, read: dose: 400.0 mg/kg/injection, schedule: Q04DX003 (ip), vehicle: saline.
Setting [7] is: dose: 200.0 mg/kg/injection, schedule: Q01DX001 (ip), vehicle: saline with Tween-80.
Where [8] appears, read: dose: 400.0 mg/kg/injection, schedule: Q01DX001 (ip), vehicle: saline with Tween-80.
[9] abbreviates: dose: 300.0 mg/kg/injection, schedule: Q01DX001 (ip), vehicle: saline.
The mark [10] stands for this setting: dose: 200.0 mg/kg/injection, schedule: Q01DX001 (ip), vehicle: saline.
The mark [11] stands for this setting: dose: 100.0 mg/kg/injection, schedule: Q01DX009 (ip), vehicle: saline with Tween-80.

Regarding `C[CH2][Pb]([CH2]C)([CH2]C)[S]C(C)=O`, the survivor count by setting is: (dose: 6.0 mg/kg/injection, schedule: Q01DX009 (ip), vehicle: Klucel (hydroxypropylcellulose) (HPC)) 5 of 6; (dose: 6.25 mg/kg/injection, schedule: Q01DX009 (ip), vehicle: Klucel (hydroxypropylcellulose) (HPC)) 3 of 3; (dose: 12.5 mg/kg/injection, schedule: Q01DX009 (ip), vehicle: Klucel (hydroxypropylcellulose) (HPC)) 1 of 3; (dose: 25.0 mg/kg/injection, schedule: Q01DX009 (ip), vehicle: Klucel (hydroxypropylcellulose) (HPC)) 0 of 3; (dose: 25.0 mg/kg/injection, schedule: Q04DX002 (ip), vehicle: Klucel (hydroxypropylcellulose) (HPC)) 1 of 3; (dose: 50.0 mg/kg/injection, schedule: Q04DX002 (ip), vehicle: Klucel (hydroxypropylcellulose) (HPC)) 0 of 3. Further, the survivor count is, setting by setting: (dose: 100.0 mg/kg/injection, schedule: Q04DX002 (ip), vehicle: Klucel (hydroxypropylcellulose) (HPC)) 0 of 3; (dose: 200.0 mg/kg/injection, schedule: Q04DX002 (ip), vehicle: Klucel (hydroxypropylcellulose) (HPC)) 0 of 3; (dose: 400.0 mg/kg/injection, schedule: Q04DX002 (ip), vehicle: Klucel (hydroxypropylcellulose) (HPC)) 0 of 3.

In the case of `Cc1cc(OCc2nc(N)nc(N)c2-c2ccc(Cl)c(Cl)c2)ccc1NC(=O)c1ccc(S(=O)(=O)F)cc1`, the survivor count (dose: 150.0 mg/kg/injection, schedule: Q01DX001 (ip), vehicle: saline with Tween-80) is 6 of 6 and the survivor count (dose: 300.0 mg/kg/injection, schedule: Q01DX001 (ip), vehicle: saline with Tween-80) is listed as 6 of 6.

`CCOC(=O)C1=C(O)c2c(sc(C)c2C)N(S(=O)(=O)c2ccc(C)cc2)CC1`: the survivor count under setting [1] is reported as 6 of 6.

Consider `CC1=C(Br)C(=O)C(C)=C(Br)C1=O`, for which the survivor count is, setting by setting: (dose: 100.0 mg/kg/injection, schedule: Q04DX003 (ip), vehicle: other) 5 of 6; (dose: 200.0 mg/kg/injection, schedule: Q04DX003 (ip), vehicle: other) 3 of 6; (dose: 400.0 mg/kg/injection, schedule: Q04DX003 (ip), vehicle: other) 2 of 6.

Take `Nc1cnccc1Nc1ccc(-c2ccccc2)cc1`: the survivor count under setting [2] is 1 of 6 and the survivor count under setting [1] is reported as 0 of 6.

As for `O=C(CC(=O)Nc1ccc([N+](=O)[O-])cc1)Nc1ccc([N+](=O)[O-])cc1`, the survivor count (dose: 200.0 mg/kg/injection, schedule: Q04DX003 (ip), vehicle: saline with Tween-80) was 6 of 6.

With `CCOc1ccc(NC(=O)Nc2ccccc2Cl)cc1`, the survivor count is reported as 6 of 6 (dose: 50.0 mg/kg/injection, schedule: Q01DX009 (ip), vehicle: gum acacia); 6 of 6 (dose: 100.0 mg/kg/injection, schedule: Q01DX009 (ip), vehicle: gum acacia); 6 of 6 (dose: 100.0 mg/kg/injection, schedule: Q04DX003 (ip), vehicle: gum acacia); 6 of 6 (dose: 400.0 mg/kg/injection, schedule: Q01DX009 (ip), vehicle: gum acacia).

For `CN(C)c1ncc(C(N)=O)cn1`, under setting [3], the survivor count is 1 of 6.

As to `C1CC[N+]2(CC1)CCC2`, the survivor count was 0 of 6 under setting [4]; 0 of 6 (dose: 200.0 mg/kg/injection, schedule: Q04DX003 (ip), vehicle: saline); 0 of 6 under setting [5]; 1 of 6 under setting [6].

Regarding `C=C1c2[nH]c3ccccc3c2C2C(CC)C1CCN2C` (stereo not given), the survivor count is, setting by setting: (dose: 75.0 mg/kg/injection, schedule: Q01DX Z (ip), vehicle: olive oil, sesame oil, peanut oil) 3 of 6; (dose: 100.0 mg/kg/injection, schedule: Q01DX Z (ip), vehicle: olive oil, sesame oil, peanut oil) 4 of 7; (dose: 150.0 mg/kg/injection, schedule: Q01DX Z (ip), vehicle: olive oil, sesame oil, peanut oil) 0 of 7.

For `CCCCC(CC)C(=O)[O][Pb]([CH3])([CH3])[CH3]` (stereo not given), the survivor count is on record as 0 of 6 (dose: 100.0 mg/kg/injection, schedule: Q01DX001 (ip), vehicle: saline with Tween-80); 0 of 6 under setting [7]; 0 of 6 under setting [8].

Take `O=CN/N=C/c1ccc(Cl)cc1Cl`: the survivor count under setting [9] is 0 of 6.

With `COC(=O)c1ccc2c(ccc[n+]2C)c1`, the survivor count under setting [9] is recorded as 0 of 6.

As to `CN(Cc1cnc2nc(NCNC(=O)C3=C(O)[C@@]4(O)C(=O)C5=C(O)c6c(O)cccc6[C@@](C)(O)[C@H]5C[C@H]4[C@H](N(C)C)C3=O)nc(N)c2n1)c1ccc(C(=O)NC(CCC(=O)O)C(=O)O)cc1` (stereo not given in full), where the note is “dose: 48.0 mg/kg/injection, schedule: Q01DX015 (ip), vehicle: saline”, the survivor count was 6 of 6.

On to `NC1=NC(c2ccccc2)N(c2ccccc2)C(N)=N1` (stereo not given), for which, under setting [10], the survivor count is on record as 1 of 6.

Turning to `CN(C)C1c2cccn2-c2ccccc2S(=O)(=O)C1c1ccccc1[N+](=O)[O-]` (stereo not given), the survivor count (dose: 100.0 mg/kg/injection, schedule: Q04DX003 (ip), vehicle: Klucel (hydroxypropylcellulose) (HPC)) is given as 6 of 6.

With `OC(CN(CCCl)CCCl)C(O)C(O)C(O)CN(CCCl)CCCl` (stereo not given), the T/C reads like this: (dose: 0.23 mg/kg/injection, schedule: Q01DX Z (ip), vehicle: saline) 129 % of control; (dose: 0.3 mg/kg/injection, schedule: Q01DX Z (ip), vehicle: saline) 132 % of control; (dose: 1.0 mg/kg/injection, schedule: Q01DX Z (ip), vehicle: saline) 128 % of control; (dose: 1.25 mg/kg/injection, schedule: Q01DX001 (ip), vehicle: saline) 132 and 148 % of control; (dose: 1.3 mg/kg/injection, schedule: Q01DX Z (ip), vehicle: saline) 149 % of control; (dose: 2.5 mg/kg/injection, schedule: Q01DX001 (ip), vehicle: saline) 126 % of control. Further, the T/C (dose: 3.0 mg/kg/injection, schedule: Q01DX Z (ip), vehicle: saline) was 142 % of control. In addition, the survivor count is 2 of 4 (dose: 5.0 mg/kg/injection, schedule: Q01DX001 (ip), vehicle: saline); 0 of 4 and 6 of 6 (dose: 10.0 mg/kg/injection, schedule: Q01DX001 (ip), vehicle: saline); 5 of 6 (dose: 10.0 mg/kg/injection, schedule: Q01DX Z (ip), vehicle: saline); 1 of 6 (dose: 15.0 mg/kg/injection, schedule: Q01DX Z (ip), vehicle: saline); 0 of 4 and 1 of 6 (dose: 20.0 mg/kg/injection, schedule: Q01DX001 (ip), vehicle: saline); 0 of 6 (dose: 40.0 mg/kg/injection, schedule: Q01DX001 (ip), vehicle: saline).

As to `Cc1cc2nc(Cc3ccccc3)[nH]c2cc1C`, the survivor count under setting [11] is listed as 6 of 6 and the survivor count under setting [2] is on record as 6 of 6.

For the compound `CC[C@@H]1C[C@H]2CC3c4[nH]c5ccc(OC)cc5c4CCN(C2)C31`, the survivor count under setting [7] is listed as 1 of 3 and the survivor count under setting [8] was 0 of 3.

On to `Clc1nnc(Nc2ccccc2)c2ccccc12`, for which the survivor count is given as 6 of 6 under setting [4] and 6 of 6 under setting [3].

Take `O=C1CCCC1CNCc1ccccc1` (stereo not given): the survivor count under setting [9] was 0 of 6.

With `C#CCNCc1ccccc1`, the survivor count runs as follows: under setting [2], 0 of 6 and 1 of 3; (dose: 400.0 mg/kg/injection, schedule: Q04DX002 (ip), vehicle: saline) 0 of 3 and 0 of 6; under setting [6], 2 of 6.

In the case of `O=[N+]([O-])CC(Nc1ccc(Br)cc1)c1ccccc1` (stereo not given), under setting [11], the T/C was 127 % of control.

Turning to `N#CC(OC(=O)c1ccccc1)c1ccc([N+](=O)[O-])cc1` (stereo not given), the survivor count was 1 of 4 under setting [10] and 0 of 4 under setting [5].

As to `Brc1cccc2c1C[n+]1ccccc1-2`, the survivor count under setting [9] is 2 of 6.

(Values after PubChem BioAssay AID248 (DTP/NCI, 2004).)
